Assay results reported in PubChem BioAssay AID651664 (NMMLSC, 2012).
In all, about 1,800 compounds went through this assay and fewer than 10 were called active.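 Rule for the calls: active = inhibition of granule release above a set limit; inactive = the rest.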 Some of the results follow.

Test: inhibitors of lytic granule exocytosis, flow cytometry, TALL-104 cells, validation set (AID 651664)
Conditions: TALL-104 LAMP-1 externalization, at 15.2 µM, stronger effect = higher value, stimulated with thapsigargin and PMA

inhibition, inactive:
O=C(Nc1ccc2oc(-c3ccc(F)cc3)nc2c1)c1ccccc1F 20.2%
CC(C(=O)Nc1ccc2c(c1)OCO2)N(c1ccc(Cl)cc1)S(C)(=O)=O (stereo not drawn) 2.4%
O=C(CCl)Nc1cccn2ncnc12 -2.1%
CCOC(=O)c1sc(NC(=O)CSc2nnnn2-c2ccccc2)c(C(=O)OCC)c1C 3.5%
Cc1ccc(SC(C)C(=O)Nc2ccccc2C(=O)N2CCOCC2)cc1 (stereo not drawn) -4.5%
COc1ccc(N2CCN(c3nc(Cl)nc(N4CCOCC4)n3)CC2)cc1 -2.4%
CN(C)c1nc(C#N)nc(N2CCOCC2)n1 -2.3%
CCOc1c(Cl)cc(C(=O)Nc2ccccc2-c2ccccc2)cc1Cl -0.6%
COC(=O)CN1C(=O)Nc2ccc(Br)cc2C1c1ccccc1Cl (stereo not drawn) -2.6%
COC(=O)C(N)Cc1ccc(O)c(O)c1 (stereo not drawn) -2.3%
COc1ccccc1N1CCN(Cc2cc(=O)n3ccsc3n2)CC1 2.9%
O=C(NC(=S)N1CCCc2ccccc21)c1ccccc1 -2.6%
CCOC(=O)C(=Cc1ccc(OCc2ccc([N+](=O)[O-])cc2)c(OC)c1)C(=O)OCC -3.8%
CC(=O)Nc1cccc(N2C(=O)CC(Cc3ccccc3)C2=O)c1 (stereo not drawn) -1.9%
O=C(Nc1ccccc1C(F)(F)F)N1CCC(N2CCCCC2)CC1 -2.1%
Clc1ccccc1C1SCC2Nc3ccccc3CN21 (stereo not drawn) 0.1%
CCCS(=O)(=O)N1CCCC(C(=O)NCc2ccco2)C1 (stereo not drawn) -4.1%
O=c1[nH]c2c(s1)C(c1ccccc1)C1C3CCC(C3)C1S2 (stereo not drawn) 0.8%
CCN1C(c2ccccc2)C(C)C(=O)C(C)C1c1ccccc1 (stereo not drawn) -3.9%
Cc1cc(C)c(NC(=O)CSc2nnc(SCC(=O)Nc3c(C)cc(C)cc3C)n2N)c(C)c1 -2.6%
O=C(Nc1nc2c(s1)CCCC2)c1ccc(Br)o1 3%
Cc1ccc(CN2C(=O)CCC2C(=O)NCCCN2CCCC(C)C2)cc1 (stereo not drawn) -1.2%
C1CCN(c2nc(N3CCCCC3)nc(N3CCNCC3)n2)CC1 -1.5%
CC1(C)CC2CC(C)(CN2C(=O)COC(=O)c2ccc(Cl)cc2N)C1 (stereo not drawn) 0.3%
OCCN1CCN(c2nc(NCc3ccco3)c3ccccc3n2)CC1 3.9%
Cc1cc(C)nc(N2C(=O)CC(C(=O)O)NC2=NCCc2c[nH]c3ccccc23)n1 (stereo not drawn) 3.7%
CCCCn1ccnc1C(=O)c1cccc(S(=O)(=O)N2c3ccccc3CC2C)c1 (stereo not drawn) -1%
NC(=S)Nc1cccc2cnccc12 0.6%
CSc1nc(SCC(N)=O)c2c3c(sc2n1)CN(C)CC3 2.5%
Cn1c(N2CCN(c3ccccn3)CC2)nc2c1c(=O)n(Cc1ccccc1Cl)c(=O)n2C -1.7%
CC(C)(C)C(=O)Nc1ccc2oc(-c3cc(F)c(F)cc3Cl)nc2c1 0.6%
O=C(CC(SCCO)c1ccc2c(c1)OCO2)c1ccco1 (stereo not drawn) 1.2%
O=C(Nc1nc2ccccc2[nH]1)c1ccccc1 -2.2%
O=C(CCN1C(=O)C2CC=C(Cl)CC2C1=O)Nc1ccccc1O (stereo not drawn) -0.5%
Cc1cccc(Oc2c(C=O)c3ccccc3n2C)c1 -5%
Cc1n[nH]c(C)c1SCC(=O)Nc1ccc(F)cc1 2.8%
Cc1cc2cc(C(c3nnnn3Cc3ccco3)N3CCc4ccccc43)c(=O)[nH]c2cc1C (stereo not drawn) -1.7%
CS(=O)(=O)c1ccc2nc(NC(=O)C3C4C=CC(C4)C3C(=O)O)sc2c1 (stereo not drawn) 1.6%
CCN(CC)C(=O)N1c2ccccc2C=Cc2ccccc21 1.6%
Cn1c(Sc2ccccc2Cl)c(C=O)c2ccccc21 0.4%
O=C(CN1CC(=O)Oc2ccccc21)OCC(=O)c1cccc(Br)c1 -1.5%
COc1ccc(C(C)=O)cc1CN1C(=O)NC2(CCCCC2)C1=O -0.4%
COc1ccc(/C=N/n2c(SC)nnc(C(C)(C)C)c2=O)cc1 2.6%
CCOc1ccc(/C(O)=C2/C(=O)C(=O)N(CCOCCO)C2c2cccnc2)cc1 (stereo not drawn) -2.1%
c1ccc(CC2CCN(c3nc4ccccc4n4cnnc34)CC2)cc1 40.8%
COc1ccccc1NC(=O)CC1COc2ccccc2O1 (stereo not drawn) -0.3%
O=C1c2sc3nc4ccccc4n3c2C(=O)N1c1ccccc1Cl -0.8%
COc1ccc(NC(=O)CCCSc2nc(-c3ccco3)cc(C(F)(F)F)n2)cc1OC -0.1%
Cc1ccc2[nH]c(=O)c(CN(CC3CCCO3)C(=O)c3ccncc3)cc2c1 (stereo not drawn) -0.4%
CCCSc1nsc(NC(=O)C(c2ccccc2)c2ccccc2)n1 -0.5%
COc1ccc2c(c1)S/C(=C\C(=O)c1ccncc1)N2C -1.5%
O=C(CSc1nnc(-c2ccco2)o1)NC(=O)C1COc2ccccc2O1 (stereo not drawn) 4.2%
O=C(Nc1ccc(F)cc1)c1cccnc1N1CCOCC1 0.7%
CCN1CCN(C(=S)c2ccc(OCC(=O)Nc3ccc(OC)cc3)cc2)CC1 -2.9%
CCCCC1OC23CCCCC2C(C#N)(C(=N)O3)C1(C#N)C#N (stereo not drawn) -1.3%
Nc1n[nH]c(-c2ccc(Br)cc2)c1Cl -6.2%
CC(C)(C)C(=O)C(CO)(Oc1ccc(Cl)cc1)n1cncn1 (stereo not drawn) 45.8%
COc1ccc(S(=O)(=O)N(CCCN2CCOCC2)Cc2cccc3ccccc23)cc1 5.5%
Cc1cccc(C)c1N(CC(=O)Nc1cc(Cl)ccc1Oc1ccccc1)S(C)(=O)=O 1.5%
COc1cc(C(=O)Oc2ccccc2/C=N/NC(=O)c2ccc(Cl)cc2Cl)cc(OC)c1OC -2.6%
COC(=O)c1cnn(-c2cc(Oc3ccccc3)ncn2)c1N 5.4%
CCOc1ccc2[nH]c(=O)c(CN(Cc3cccnc3)C(=O)Nc3ccccc3OC)cc2c1 -0.5%
COc1cc2c(cc1OC)C(=O)CC(C)S2 (stereo not drawn) 0.3%
CC(NC(=O)Nc1nnc(C(F)(F)F)s1)(C(F)(F)F)C(F)(F)F -0.6%
Cn1c(=O)c2c(-c3ccc(C(C)(C)C)cc3)n(N3CCOCC3)cc2n(C)c1=O 0.1%
C=CCN1C(=O)C2(C(C(=O)c3ccc(C)o3)=C(O)C(=O)N2CCCN2CCOCC2)c2ccccc21 (stereo not drawn) -1.9%
O=C(O)CCCC(=O)Nc1ccccc1-n1ccnc1 0.7%
O=C(Nc1ccc(Oc2ccc(NC(=O)C3CCCO3)cc2)cc1)C1CCCO1 (stereo not drawn) 2.3%
COc1ccc2c(c1)Cc1sc(NC(=O)c3ccco3)nc1-2 -3.9%
CCOC(=O)c1cnc(SCC(=O)c2ccc(C)cc2)nc1N -3.6%
CCOC1(OCC)N=C(N)C2(C#N)C(c3cccc(C)c3)C12C#N (stereo not drawn) -0.4%
Cc1cc(/C=N/Nc2ccc([N+](=O)[O-])cn2)c(C)n1-c1ccccc1 2.1%
Cc1cc(C(=O)Nc2ccccc2)c(C)o1 5.7%
O=C(O)Cn1c(SCc2ccccc2)nc2ccccc21 2.7%
O=C(c1ccc(Cl)cc1)c1coc2ccc(O)cc12 1.2%
O=C(c1ccccc1CCc1ccccc1)N1CCN(c2ccccn2)CC1 -2.3%
COCc1nnc(NC(=O)CSCc2ccccc2)s1 5.1%
O=C1CC(C(=O)Nc2ccc(C(=O)O)cc2)C(c2ccccc2)O1 (stereo not drawn) 3.1%
COc1ccc(CN(C)CCc2ccccn2)cc1OC -1.6%
CC(C)(C)c1ccc(CN(Cc2ccco2)Cc2nnnn2C2CCCC2)cc1 2.3%
Cc1cc(C(C)(C)C)cc(S(=O)(=O)NCCO)c1C 4.5%
O=C(c1ccccc1)N(CCN1CCOCC1)C1(C(=O)Nc2ccccc2)CCCCC1 5.2%
O=C(CSc1nnc(CNc2ccc(F)cc2)n1-c1ccccc1)N1CCOCC1 -4.6%
CCn1c(-c2ccccc2)c[nH]c1=S -1.3%
COc1ccc(C(CNC(=O)c2ccc(N3CCCC3=O)cc2)N(C)C)cc1 (stereo not drawn) -2%
Cc1ccc(CNC(=O)c2sccc2-n2cccc2)cc1 0.6%
CCC(COC(=O)Nc1cccc(C)c1)NC(=O)OCC(C)C (stereo not drawn) 0.7%
CCCC(=O)OC1CC(C)N(C(=O)c2ccccc2)c2ccc(C)cc21 (stereo not drawn) -2.7%
O=C(COC(=O)c1cccnc1)c1ccc(Cl)c(Cl)c1 -1.3%
COc1ccc(-n2c(O)c(/C=N/n3cnnc3)c3ccccc3c2=O)cc1 5.7%
Cc1nc2sc(C#N)c(N)c2c2c1CCCC2 -3%
CCn1c(SCC(=O)N2CCCc3ccccc32)nnc1-c1c[nH]c2ccccc12 -0.2%
Cc1ccccc1-c1nc2sc3c(c2c(=O)o1)CCC3 -1.1%
O=C(Nc1ccc2c(c1)oc1ccccc12)N1CCOCC1 -3.4%
O=C1CCC/C1=c1\s/c(=C\c2cccnc2)c(=O)n1-c1ccccc1 -0.5%
CCOC(=O)C1=C(C)N=C2SC(C)C(=O)N2C1c1ccc(OCC)c(OCC)c1 (stereo not drawn) -1.1%
CCN(CC)C(=O)N1CCc2ccccc2C1CN1C(=O)c2ccccc2C1=O (stereo not drawn) -0.8%
O=C(OCc1nnc(-c2ccccc2)o1)c1ccc2ccccc2n1 0.3%

Nothing new here: 3 of the compounds above.
inhibition, inactive:
C1CCN(c2nc(N3CCCCC3)nc(N3CCNCC3)n2)CC1 -1.5%
CC1(C)CC2CC(C)(CN2C(=O)COC(=O)c2ccc(Cl)cc2N)C1 (stereo not drawn) 0.3%
OCCN1CCN(c2nc(NCc3ccco3)c3ccccc3n2)CC1 3.9%

Three records drawn at random from those above, as already listed:
inhibition, inactive:
CCn1c(SCC(=O)N2CCCc3ccccc32)nnc1-c1c[nH]c2ccccc12 -0.2%
CCOc1ccc(/C(O)=C2/C(=O)C(=O)N(CCOCCO)C2c2cccnc2)cc1 (stereo not drawn) -2.1%
COc1ccc(/C=N/n2c(SC)nnc(C(C)(C)C)c2=O)cc1 2.6%
